Source: PMC11434141

Molecular target: basic-helix-loop-helix-S/T (bHLH-S/T) of SRC-1, GST fusion
Assay: pull-down; GST-fused full-length or fragmented protein on GST-beads, incubated overnight at 4 °C with recombinant protein expressed by 293T cells; Western blot; only the target purified

binding: binds
B1: IRF1, tagged, expressed in 293T cells (protein, UniProt P10914 1-325)
chain: MPITRMRMRPWLEMQINSNQIPGLIWINKEEMIFQIPWKHAAKHGWDINKDACLFRSWAIHTGRYKAGEKEPDPKTWKANFRCAMNSLPDIEEVKDQSRNKGSSAVRVYRMLPPLTKNQRKERKSKSSRDAKSKAKRKSCGDSSPDTFSDGLSSSTLPDDHSSYTVPGYMQDLEVEQALTPALSPCAVSSTLPDWHIPVEVVPDSTSDLYNFQVSPMPSTSEATTDEDEEGKLPEDIMKLLEQSEWQPTNVDGKGYLLNEPGVQPTSVYGDFSCKEEPEIDSPGGDIGLSLQRVFTDLKNMDATWLDSLLTPVRLPSIQAIPCAP

These are yes or no findings as the source states them, for the method shown. In cells and extracts the contact can be indirect. Binding calls can cover weak binding; strength is not graded here. Tags and fused reporters may be left off the sequences shown.
